Source: PMC4957051, “Molecular Mechanism of Z α1-Antitrypsin Deficiency*” (The Journal of Biological Chemistry, 2016)
Results are given in words; binding and its absence hold for the method and conditions named. Some binding calls cover weakened binding; strength is not graded here.

Amino acid sequences for entries named in this document (tags omitted). A change or cut given only in a name is not applied to a line headed by its entry. Chains listed by the source or under a name are the forms on record and can include a tag or linker.
plasma-derived Z α1-antitrypsin (E342K) (P01009, form named): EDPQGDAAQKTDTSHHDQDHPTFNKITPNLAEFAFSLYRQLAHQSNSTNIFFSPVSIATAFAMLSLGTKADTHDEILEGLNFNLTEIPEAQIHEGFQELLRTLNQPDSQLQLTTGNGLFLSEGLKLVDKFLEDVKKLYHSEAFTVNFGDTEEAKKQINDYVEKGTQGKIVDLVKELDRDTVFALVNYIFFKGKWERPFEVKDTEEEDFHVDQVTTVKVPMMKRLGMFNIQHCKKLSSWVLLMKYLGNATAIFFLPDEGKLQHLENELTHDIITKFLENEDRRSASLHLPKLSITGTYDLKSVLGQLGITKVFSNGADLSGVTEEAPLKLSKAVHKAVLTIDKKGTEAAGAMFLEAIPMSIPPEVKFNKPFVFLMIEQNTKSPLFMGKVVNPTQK

Molecular target: plasma-derived Z α1-antitrypsin (E342K) (human) (UniProt P01009)
Assay: native gel or EMSA; peptide annealing: α1-AT variants (0.5 mg/ml) incubated with 100-fold molar excess of 6-mer peptide at 37 °C for different time intervals, then 8% native gel with 7 M urea; the binary complex resists urea; both purified

binding: binds
Binder: FLEAIG [6-mer peptide (FLEAIG) derived from the P7 to P2 sequence of the α1-AT reactive loop]
